# According to US20130150327A1, “COMPOSITION FOR PREVENTING HAIR LOSS OR STIMULATING HAIR GROWTH” (Biopid Corporation, priority 2010, published 2013):
# At least one structure is not confirmed: it was looked up by name or label, or the drawing left a doubt.
# Test system: mice with DNFB-induced allergic dermatitis
# Experiment: Animal Test 1: hair follicle growth in back skin tissue of mice with DNFB-induced allergic dermatitis
# Type: in vivo, mouse
# Settings: comparators: Tacrolimus ointment (FIG. 5), 0.1% dexamethasone in ethanol (FIG. 6), twice a day, 10 days
structure (smiles),measurement,value
C[C@@H]1C[C@H]2[C@@H]3CCC4=CC(=O)C=C[C@]4(C)[C@@]3(F)[C@@H](O)C[C@]2(C)[C@@]1(O)C(=O)CO [dexamethasone],hair follicle growth in mice tissues,no observed
